Among the data in the supplement of paper PMC10849652 are log2 fold change values, retold here.

Protein sequences, listed by entry. Tags and fused reporters are not part of them. Lines headed by an entry give the natural chain unless they say otherwise; changes in a name come on top.
UniProt Q9UJZ1: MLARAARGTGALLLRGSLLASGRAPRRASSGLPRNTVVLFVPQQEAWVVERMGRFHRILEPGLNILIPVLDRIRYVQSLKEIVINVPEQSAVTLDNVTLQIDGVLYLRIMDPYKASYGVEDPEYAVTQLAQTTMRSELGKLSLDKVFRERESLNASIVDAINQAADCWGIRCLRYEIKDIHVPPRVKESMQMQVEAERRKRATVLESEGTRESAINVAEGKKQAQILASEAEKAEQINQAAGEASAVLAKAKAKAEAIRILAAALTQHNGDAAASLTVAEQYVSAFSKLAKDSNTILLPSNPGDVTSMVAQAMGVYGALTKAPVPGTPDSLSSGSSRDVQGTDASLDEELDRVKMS
UniProt Q96SI9: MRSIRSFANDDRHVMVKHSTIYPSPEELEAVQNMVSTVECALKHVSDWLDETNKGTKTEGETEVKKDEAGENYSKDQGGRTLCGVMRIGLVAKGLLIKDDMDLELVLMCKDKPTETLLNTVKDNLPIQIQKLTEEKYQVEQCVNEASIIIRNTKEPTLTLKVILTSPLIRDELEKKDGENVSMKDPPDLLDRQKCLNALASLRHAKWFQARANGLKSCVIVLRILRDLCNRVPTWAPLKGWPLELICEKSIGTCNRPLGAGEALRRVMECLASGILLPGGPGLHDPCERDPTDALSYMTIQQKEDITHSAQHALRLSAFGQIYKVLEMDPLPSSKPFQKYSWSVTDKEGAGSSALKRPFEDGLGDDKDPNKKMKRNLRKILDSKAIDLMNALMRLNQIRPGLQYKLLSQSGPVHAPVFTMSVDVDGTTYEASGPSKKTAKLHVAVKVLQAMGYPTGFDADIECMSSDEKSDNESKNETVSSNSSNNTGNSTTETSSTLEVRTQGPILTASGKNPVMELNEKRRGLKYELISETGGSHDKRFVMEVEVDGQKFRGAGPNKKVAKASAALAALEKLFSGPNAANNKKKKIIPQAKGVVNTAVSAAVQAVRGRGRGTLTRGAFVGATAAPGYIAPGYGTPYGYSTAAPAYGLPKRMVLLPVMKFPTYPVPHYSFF
UniProt Q9ULQ0: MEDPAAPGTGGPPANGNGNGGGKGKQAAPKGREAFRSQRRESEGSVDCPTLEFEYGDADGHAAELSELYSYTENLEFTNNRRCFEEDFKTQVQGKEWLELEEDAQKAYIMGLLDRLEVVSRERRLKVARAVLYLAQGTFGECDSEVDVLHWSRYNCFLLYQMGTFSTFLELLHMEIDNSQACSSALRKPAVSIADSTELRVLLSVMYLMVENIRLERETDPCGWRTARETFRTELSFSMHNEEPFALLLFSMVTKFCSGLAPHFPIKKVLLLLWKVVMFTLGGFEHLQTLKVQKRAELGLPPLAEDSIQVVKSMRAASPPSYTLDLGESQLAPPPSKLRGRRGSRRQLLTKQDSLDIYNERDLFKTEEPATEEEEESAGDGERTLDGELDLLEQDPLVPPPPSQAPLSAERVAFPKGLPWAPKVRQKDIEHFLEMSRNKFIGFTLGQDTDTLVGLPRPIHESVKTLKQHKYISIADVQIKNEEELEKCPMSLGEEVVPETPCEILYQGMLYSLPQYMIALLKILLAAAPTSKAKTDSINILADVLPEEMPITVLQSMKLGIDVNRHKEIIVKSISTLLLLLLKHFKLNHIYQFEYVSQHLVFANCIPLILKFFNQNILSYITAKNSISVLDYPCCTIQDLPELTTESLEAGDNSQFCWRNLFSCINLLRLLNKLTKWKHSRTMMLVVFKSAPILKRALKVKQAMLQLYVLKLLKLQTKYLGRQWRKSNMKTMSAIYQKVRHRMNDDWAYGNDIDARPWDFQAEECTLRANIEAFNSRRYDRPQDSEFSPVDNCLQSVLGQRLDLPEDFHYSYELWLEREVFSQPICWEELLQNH
UniProt A2RTX5: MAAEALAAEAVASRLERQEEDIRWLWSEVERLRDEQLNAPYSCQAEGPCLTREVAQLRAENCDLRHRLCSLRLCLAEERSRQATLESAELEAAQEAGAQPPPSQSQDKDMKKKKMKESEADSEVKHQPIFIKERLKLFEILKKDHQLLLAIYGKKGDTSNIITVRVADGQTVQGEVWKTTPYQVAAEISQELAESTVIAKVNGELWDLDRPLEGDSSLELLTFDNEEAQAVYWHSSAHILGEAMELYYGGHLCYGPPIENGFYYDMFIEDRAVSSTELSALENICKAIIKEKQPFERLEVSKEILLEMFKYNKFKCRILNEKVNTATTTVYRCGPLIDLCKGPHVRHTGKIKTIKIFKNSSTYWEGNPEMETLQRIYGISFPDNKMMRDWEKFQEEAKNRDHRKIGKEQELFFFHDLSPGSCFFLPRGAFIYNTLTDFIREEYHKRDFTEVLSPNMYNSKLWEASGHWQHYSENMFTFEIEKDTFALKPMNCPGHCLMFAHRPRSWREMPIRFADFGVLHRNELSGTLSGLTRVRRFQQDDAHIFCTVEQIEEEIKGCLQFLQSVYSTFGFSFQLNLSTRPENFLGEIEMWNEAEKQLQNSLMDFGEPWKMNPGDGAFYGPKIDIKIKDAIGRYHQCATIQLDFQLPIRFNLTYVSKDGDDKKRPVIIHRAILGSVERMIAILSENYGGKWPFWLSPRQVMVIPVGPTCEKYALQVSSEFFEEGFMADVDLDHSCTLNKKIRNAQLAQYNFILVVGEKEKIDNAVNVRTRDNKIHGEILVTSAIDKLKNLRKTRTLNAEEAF
UniProt Q86Y82: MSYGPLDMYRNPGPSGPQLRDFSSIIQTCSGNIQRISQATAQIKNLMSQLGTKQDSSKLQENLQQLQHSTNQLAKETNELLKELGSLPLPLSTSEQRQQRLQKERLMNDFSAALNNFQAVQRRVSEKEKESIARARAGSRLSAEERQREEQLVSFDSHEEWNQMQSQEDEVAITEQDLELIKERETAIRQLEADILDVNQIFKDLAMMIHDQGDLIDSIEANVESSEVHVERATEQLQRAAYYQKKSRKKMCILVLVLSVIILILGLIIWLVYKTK
UniProt Q13188: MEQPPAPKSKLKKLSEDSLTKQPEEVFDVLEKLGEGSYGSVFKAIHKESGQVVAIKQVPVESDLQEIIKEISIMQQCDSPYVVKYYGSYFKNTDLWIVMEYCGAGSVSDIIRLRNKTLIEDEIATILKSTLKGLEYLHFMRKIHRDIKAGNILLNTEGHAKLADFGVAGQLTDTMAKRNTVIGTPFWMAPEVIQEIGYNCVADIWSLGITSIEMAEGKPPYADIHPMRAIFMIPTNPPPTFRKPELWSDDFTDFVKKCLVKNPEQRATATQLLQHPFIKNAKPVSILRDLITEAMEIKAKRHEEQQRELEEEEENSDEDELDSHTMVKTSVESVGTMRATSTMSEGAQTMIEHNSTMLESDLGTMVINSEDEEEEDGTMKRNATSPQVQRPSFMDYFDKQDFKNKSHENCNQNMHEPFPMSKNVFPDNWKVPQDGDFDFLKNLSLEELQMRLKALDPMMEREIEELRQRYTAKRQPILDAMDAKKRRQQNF
UniProt P37802: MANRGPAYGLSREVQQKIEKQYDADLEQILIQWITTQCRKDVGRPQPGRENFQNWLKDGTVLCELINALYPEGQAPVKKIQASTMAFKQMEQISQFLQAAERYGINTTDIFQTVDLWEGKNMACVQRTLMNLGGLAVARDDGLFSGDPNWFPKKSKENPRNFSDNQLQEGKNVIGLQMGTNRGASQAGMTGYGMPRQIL
UniProt Q92844: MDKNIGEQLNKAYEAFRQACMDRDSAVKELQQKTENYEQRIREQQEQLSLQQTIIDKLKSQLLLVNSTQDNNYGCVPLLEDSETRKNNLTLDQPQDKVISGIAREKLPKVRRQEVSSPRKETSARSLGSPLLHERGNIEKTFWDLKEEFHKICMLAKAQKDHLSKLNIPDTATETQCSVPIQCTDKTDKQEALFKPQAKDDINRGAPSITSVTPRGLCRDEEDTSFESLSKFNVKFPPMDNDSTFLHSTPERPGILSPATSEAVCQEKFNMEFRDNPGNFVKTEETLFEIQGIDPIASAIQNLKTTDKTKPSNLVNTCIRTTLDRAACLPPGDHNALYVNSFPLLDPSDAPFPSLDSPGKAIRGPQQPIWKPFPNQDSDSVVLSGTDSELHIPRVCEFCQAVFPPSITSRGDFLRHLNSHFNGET
UniProt Q12846: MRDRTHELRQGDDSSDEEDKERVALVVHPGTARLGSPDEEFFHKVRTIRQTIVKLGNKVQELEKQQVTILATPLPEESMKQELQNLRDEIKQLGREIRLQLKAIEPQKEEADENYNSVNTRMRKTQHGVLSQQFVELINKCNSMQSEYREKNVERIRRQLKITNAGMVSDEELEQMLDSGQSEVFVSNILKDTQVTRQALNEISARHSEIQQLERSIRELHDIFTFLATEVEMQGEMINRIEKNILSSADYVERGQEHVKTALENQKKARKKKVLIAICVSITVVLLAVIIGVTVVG
UniProt Q9NVG8: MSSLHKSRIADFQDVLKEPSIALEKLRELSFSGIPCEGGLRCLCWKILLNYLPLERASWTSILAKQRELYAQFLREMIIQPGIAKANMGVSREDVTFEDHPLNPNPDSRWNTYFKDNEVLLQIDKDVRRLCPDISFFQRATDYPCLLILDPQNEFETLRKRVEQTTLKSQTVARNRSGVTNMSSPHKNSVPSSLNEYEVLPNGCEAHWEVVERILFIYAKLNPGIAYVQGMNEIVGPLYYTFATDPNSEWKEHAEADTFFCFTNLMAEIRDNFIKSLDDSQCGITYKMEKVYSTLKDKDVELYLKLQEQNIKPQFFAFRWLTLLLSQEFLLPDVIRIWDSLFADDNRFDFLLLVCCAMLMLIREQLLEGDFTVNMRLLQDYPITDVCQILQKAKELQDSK
UniProt Q7Z7C8, whole entry, looked up: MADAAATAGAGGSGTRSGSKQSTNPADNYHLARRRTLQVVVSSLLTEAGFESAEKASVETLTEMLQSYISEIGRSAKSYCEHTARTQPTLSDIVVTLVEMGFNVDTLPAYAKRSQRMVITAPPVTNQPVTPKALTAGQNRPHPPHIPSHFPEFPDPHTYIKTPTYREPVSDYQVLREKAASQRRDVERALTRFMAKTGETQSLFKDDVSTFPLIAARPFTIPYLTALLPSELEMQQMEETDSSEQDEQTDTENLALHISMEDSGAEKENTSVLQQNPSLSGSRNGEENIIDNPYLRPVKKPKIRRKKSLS
UniProt Q15833: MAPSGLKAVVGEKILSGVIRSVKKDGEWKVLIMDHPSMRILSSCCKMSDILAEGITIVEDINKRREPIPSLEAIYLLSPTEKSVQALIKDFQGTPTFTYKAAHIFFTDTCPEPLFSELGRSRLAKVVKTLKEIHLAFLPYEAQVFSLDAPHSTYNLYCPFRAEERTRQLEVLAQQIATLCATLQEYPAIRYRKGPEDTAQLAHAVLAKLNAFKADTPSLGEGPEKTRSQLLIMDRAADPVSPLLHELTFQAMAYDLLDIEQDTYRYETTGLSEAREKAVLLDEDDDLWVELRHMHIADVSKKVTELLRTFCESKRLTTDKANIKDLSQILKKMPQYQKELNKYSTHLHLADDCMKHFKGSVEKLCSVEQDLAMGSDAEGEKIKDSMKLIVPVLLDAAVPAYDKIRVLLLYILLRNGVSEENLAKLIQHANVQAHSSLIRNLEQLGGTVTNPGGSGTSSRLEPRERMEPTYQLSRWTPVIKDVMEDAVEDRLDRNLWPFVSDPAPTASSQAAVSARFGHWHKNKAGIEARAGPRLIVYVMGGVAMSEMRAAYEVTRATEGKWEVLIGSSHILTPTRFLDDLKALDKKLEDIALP
UniProt Q9BW92: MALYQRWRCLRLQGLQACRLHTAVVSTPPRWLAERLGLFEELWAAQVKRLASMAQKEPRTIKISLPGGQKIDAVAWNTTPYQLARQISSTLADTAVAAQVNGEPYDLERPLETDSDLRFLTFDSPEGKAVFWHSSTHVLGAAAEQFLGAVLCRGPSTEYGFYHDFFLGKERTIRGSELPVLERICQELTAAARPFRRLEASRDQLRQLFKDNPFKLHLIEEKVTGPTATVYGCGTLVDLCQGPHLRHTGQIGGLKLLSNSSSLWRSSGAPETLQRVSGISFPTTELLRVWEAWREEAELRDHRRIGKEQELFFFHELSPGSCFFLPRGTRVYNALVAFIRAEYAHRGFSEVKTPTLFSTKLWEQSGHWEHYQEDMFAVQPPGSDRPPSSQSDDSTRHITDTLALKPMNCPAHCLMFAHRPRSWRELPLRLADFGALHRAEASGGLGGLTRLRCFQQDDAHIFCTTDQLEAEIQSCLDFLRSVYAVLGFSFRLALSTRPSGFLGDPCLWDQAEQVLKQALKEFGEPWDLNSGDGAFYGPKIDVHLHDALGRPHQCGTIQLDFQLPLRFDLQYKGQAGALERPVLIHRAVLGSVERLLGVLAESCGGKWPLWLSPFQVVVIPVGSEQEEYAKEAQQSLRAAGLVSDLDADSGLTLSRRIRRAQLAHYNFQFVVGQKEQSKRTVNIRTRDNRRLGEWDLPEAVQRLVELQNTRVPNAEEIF

The other results are listed elsewhere or left out.

Compound in the experiment: C1=CC(=CC=C1C2=NC3=C(N2)C=C(C=C3)C(=O)N)OC4=CC=C(C=C4)Cl
As to the kind of experiment: log2 fold change, soluble protein after heating vs DMSO (PISA); higher = thermal stabilisation; K562 cells, 10 uM, 30 min; active = over 0.2 and 3.5 SD of the protein, either way, in both replicates (recomputed). The procedure, abridged:
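K562 cells (2×10^6 cells/mL) were treated with 10 μM compound for 30 min, and aliquots were heated for 3 min over 48°C-58°C. Pooled aliquots were extracted in PBS with 0.5% NP-40 at 4°C, and the supernatant after 21,000xg for 90 min was measured by TMTpro 16plex LC-MS/MS with channel sums equalised. Reported thermal stability, relative to control samples and from duplicates, is a log2 fold change.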
Turning to STOML2 (UniProt Q9UJZ1), the log2 fold change is inactive: 0. Under STRBP (UniProt Q96SI9) stands inactive: -0.025; under STRIP2 (UniProt Q9ULQ0), inactive: 0.027; under SUOX (UniProt P51687), inactive: -0.01. For the target TACO1 (UniProt Q9BSH4), the log2 fold change was inactive: -0.074. Then SUN2 (UniProt Q9UH99), with inactive: -0.004.

With TARSL2 (UniProt A2RTX5), the log2 fold change was inactive: 0.019. As for TAX1BP1 (UniProt Q86VP1), the log2 fold change was inactive: 0.044. For the target TAF4 (UniProt O00268), the log2 fold change was inactive: 0.072. Then STX12 (UniProt Q86Y82), with inactive: -0.033; and STK3 isoform 2 (UniProt Q13188), with inactive: -0.004. Under TAGLN2 isoform 2 (UniProt P37802) stands inactive: -0.019. Turning to TANK (UniProt Q92844), the log2 fold change is inactive: -0.048. Then SUPT4H1 (UniProt P63272), with inactive: 0.031; and SYPL1 (UniProt Q16563), with inactive: -0.021. For STX4 (UniProt Q12846), the log2 fold change is inactive: 0.005. For TBC1D13 (UniProt Q9NVG8), the log2 fold change is inactive: 0.015. Under SUCLG1 (UniProt P53597) stands inactive: -0.004; under TAF8 isoform 2 (UniProt Q7Z7C8), inactive: 0.062; under STXBP2 isoform 3 (UniProt Q15833), inactive: -0.049. Under TAF15 (UniProt Q92804) stands inactive: 0.011; under SUB1 (UniProt P53999), inactive: -0.04; under TARS2 (UniProt Q9BW92), inactive: 0.003.
